Reference: patent US5624894A (University of Florida, priority 1995, dated 1997)

Test: general procedure: solution-phase peptide synthesis; DCC/HOBt
Settings: coupling step

Row | Substance | step yield
1 | Boc-Ala-Ala-Gln-Leu-Pro-Gly-cholesteryl ester | 81.25%
2 | Boc-Ala-Gln-Leu-Pro-Gly-Cholesteryl Ester | 86.41%
3 | Boc-Ala-Pro-Gln-Leu-Pro-Gly-Cholesteryl Ester | 63.7%
4 | Boc-Gln-Leu-Pro-Gly-Cholesteryl Ester | 38.64%
5 | Boc-Pro-Gln-Leu-Pro-Gly-Cholesteryl Ester | 84.7%
6 | Boc-Pro-Pro-Gln-Leu-Pro-Gly-cholesteryl Ester | 63.7%
7 | N-t-Boc-Ala-Tyr-D-Ala-Gly-Phe-D-Leu-Cholesteryl Ester | 81% yield
8 | N-t-Boc-D-Ala-Gly-Phe-D-Leu-Cholesteryl Ester | 70%
9 | Nicotinoyl-Ala-Ala-Tyr(O-tBu)-Arg(.OMEGA.-Pmc)-Cholesteryl Ester | 71.6%

Same assay, conditions: late stage modification step

Row | Substance | step yield
10 | 1,4-Dihydrotrigonellyl-Ala-Tyr-D-Ala-Gly-Phe-D-Leu-OH | 25% yield
11 | 1,4-dihydrotrigonellyl-Ala-Tyr-D-Ala-Gly-Phe-D-Leu-Ethyl Ester | 72% yield
12 | Nicotinoyl-Ala-Ala-Gln-Leu-Pro-Gly-Cholesteryl Ester | 39.25%
13 | Nicotinoyl-Ala-Gln-Leu-Pro-Gly-Cholesteryl Ester | 75%
14 | Nicotinoyl-Ala-Pro-Gln-Leu-Pro-Gly-Cholesteryl Ester | 68%
15 | Nicotinoyl-Ala-Tyr-D-Ala-Gly-Phe-D-Leu-Cholesteryl Ester | 75% yield
16 | Nicotinoyl-Pro-Pro-Gln-Leu-Pro-Gly-Cholesteryl Ester | 69.6%
17 | Nicotinyl-Pro-Gln-Leu-Pro-Gly-Cholesteryl Ester | 69.6%
18 | Trigonellyl-Ala-Ala-Tyr(O-tBu)-Arg(.OMEGA.-Pmc)-Cholesteryl Ester Methylsulfate | approximately 100%
19 | Trigonellyl-Ala-Ala-Tyr-Arg-Cholesteryl Ester Methylsulfate | 76.9%
20 | Trigonellyl-Ala-Ala-Tyr-D-Ala-Gly-Phe-D-Leu-Cholesteryl Ester Methylsulfate | 63.5% yield
21 | Trigonellyl-Ala-Ala-Tyr-D-Ala-Gly-Phe-D-Leu-OH Methylsulfate | 39.7% yield
22 | Trigonellyl-Ala-Tyr-D-Ala-Gly-Phe-D-Leu-Cholesteryl Ester Methylsulfate | 68.5% yield
23 | Trigonellyl-Ala-Tyr-D-Ala-Gly-Phe-D-Leu-Ethyl Ester Methylsulfate | 65% yield

Same assay, conditions: late stage modification step, mass spectrum peak area

Row | Substance | final ms purity
24 | Trigonellyl-Ala-Ala-Tyr-Arg-Cholesteryl Ester Methylsulfate | peak area>90% of the total peak areas
